Source: US6329338A (Meiji Seika Kaisha, Ltd., priority 1995, dated 2001)

Test: peptide synthesis
Details: coupling step

| Substance | step yield |
| --- | --- |
| Boc-MeLeu-Lac-MeLeu-PhLac-MeLeu-Lac-MeLeu-(NH2 CO)PhLac-OBn | 82.2% |
| Boc-MeLeu-Lac-MeLeu-(NH2 CO)PhLac-MeLeu-Lac-MeLeu-(NH2 CO)PhLac-OBn | 63.1% |

Same assay, conditions: cyclisation step

| Substance | cyclisation yield |
| --- | --- |
| Cyclo[MeLeu-Lac-MeLeu-(NH2 CO)PhLac]2 | 65.4% |
| Cyclo[MeLeu-Lac-MeLeu-PhLac-MeLeu-Lac-MeLeu-(NH2 CO)PhLac] | 63.3% |

Same assay, conditions: late stage modification step

| Substance | step yield |
| --- | --- |
| H-MeLeu-Lac-MeLeu-(NH2 CO)PhLac-MeLeu-Lac-MeLeu-(NH2 CO)-PhLac-OBn | 99% |
| Cyclo[MeLeu-Lac-MeLeu-((S)-pyrrolidinyl-2-methoxy)PhLac-MeLeu-Lac-MeLeu-PhLac] | 51% |
| Cyclo[MeLeu-Lac-MeLeu-((CH3)2 NCO)PhLac-MeLeu-Lac-MeLeu-PhLac] | 76.6% |
| Cyclo[MeLeu-Lac-MeLeu-(BocNHCH2 CH2 O)PhLac]2 | 34% |
| H-MeLeu-Lac-MeLeu-PhLac-MeLeu-Lac-MeLeu-(NH2 CO)PhLac-OBn | 100% |
| Cyclo[MeLeu-Lac-MeLeu-(3-(5-isobutyl-1,2,4-oxadiazolyl)-methoxy)PhLac-MeLeu-Lac-MeLeu-PhLac] | 81% |
| Cyclo[MeLeu-Lac-MeLeu-(6-chloro-3-picolyloxy)PhLac-MeLeu-Lac-MeLeu-PhLac] | 76% |
| Cyclo[MeLeu-Lac-MeLeu-(3-(5-methyl-1,2,4-oxadiazolyl)-methoxy)PhLac-MeLeu-Lac-MeLeu-PhLac] | 79% |
| H-MeLeu-Lac-MeLeu-(NH2 CO)PhLac-OBn | 97.9% |
| Cyclo[MeLeu-(p-Mor)PhLac-MeLeu-Lac-MeLeu-PhLac-MeLeu-Lac] | 37% |
| Cyclo[MeLeu-Lac-MeLeu-(MorCH2 CH2 OCO)PhLac-MeLeu-Lac-MeLeu-PhLac] | 49.8% |
| Cyclo[MeLeu-((CH3 OCH2 CH2)2 NCH2 CH2 O)PhLac-MeLeu-Lac-MeLeu-PhLac-MeLeu-Lac] | 30.6% |
| Cyclo[MeLeu-Lac-MeLeu-(N-Boc-imidazolyl-4-methoxy)PhLac-MeLeu-Lac-MeLeu-PhLac] | 46.3% |
| Cyclo[MeLeu-Lac-MeLeu-(3-(5-isopropyl-1,2,4-oxadiazolyl)-methoxy)PhLac]. sub.2 | 27.3% |
| Cyclo[MeLeu-Lac-MeLeu-((C2 H5)2 NCH2 CH2 CH2 O)PhLac-MeLeu-Lac-MeLeu-PhLac] | 73% |
| Cyclo[MeLeu-Lac-MeLeu-(BocNHCH2 CH2 O)PhLac-MeLeu-Lac-MeLeu-PhLac] | 58.2% |
| Cyclo[MeLeu-Lac-MeLeu-((CH3)2 NCH2 CH2 O)PhLac]2 | 48% |
| Cyclo[MeLeu-Lac-MeLeu-(NCCH2 O)PhLac-MeLeu-Lac-MeLeu-PhLac] | 94.4% |
| Cyclo[MeLeu-Lac-MeLeu-(H2 N)PhLac-MeLeu-Lac-MeLeu-PhLac] | 39.4% |
| Cyclo[MeLeu-Lac-MeLeu-((C2 H5)2 NCH2 CH2 O)PhLac-MeLeu-Lac-MeLeu-PhLac] | 66.7% |
| Cyclo[MeLeu-Lac-MeLeu-((C2 H5)N(Cbz)CH2 CH2 CH2 O)PhLac-MeLeu-Lac-MeLeu-PhLac] | 77% |
| Cyclo[MeLeu-Lac-MeLeu-(t-BuO)PhLac]2 | 35.7% |

| Substance | step yield |
| --- | --- |
| Cyclo[MeLeu-Lac-MeLeu-(N-BOC-(S)-pyrrolidinyl-2-methoxy)PhLac-MeLeu-Lac-MeLeu-PhLac] | 64.8% |
| Cyclo[MeLeu-Lac-MeLeu-(Pr2 NCH2 CH2 O)PhLac-MeLeu-Lac-MeLeu-PhLac] | 54% |
| Cyclo[MeLeu-Lac-MeLeu((CH3)2 NCH2 CH2 O)PhLac-MeLeu-Lac-MeLeu-PhLac] | 68.5% |
| Cyclo[MeLeu-Lac-MeLeu-(3-(5-isobutyl-1,2,4-oxadiazolyl)-methoxy)PhLac]2 | 72.8% |
| Cyclo[MeLeu-Lac-MeLeu(Bu2 NCH2 CH2 O)PhLac-MeLeu-Lac-MeLeu-PhLac] | 44% |
| Cyclo[MeLeu-Lac-MeLeu-(tetrahydrofurfuryloxy)PhLac-MeLeu-Lac-MeLeu-PhLac] | 45.6% |
| Cyclo[MeLeu-Lac-MeLeu-(3-(5-isopropyl-1,2,4-oxadiazolyl)-methoxy)PhLac-MeLeu-Lac-MeLeu-PhLac] | 71% |
| Cyclo[MeLeu-Lac-MeLeu-(2-picolyloxy)PhLac]2 | 50% |
| H-MeLeu-Lac-MeLeu-PhLac-MeLeu-Lac-MeLeu-(NH2 CO)PhLac-OH | 93.0% |
| Cyclo[MeLeu-Lac-MeLeu-(imidazolyl-4-methoxy)PhLac-MeLeu-Lac-MeLeu-PhLac] | 61.2% |
| Cyclo[MeLeu-Lac-MeLeu-(PipCH2 CH2 O)PhLac-MeLeu-Lac-MeLeu-PhLac] | 74% |
| Cyclo[MeLeu-Lac-MeLeu-(O2 N)PhLac-MeLeu-Lac-MeLeu-PhLac] | 35.5% |
| Cyclo[MeLeu-Lac-MeLeu-(3-(5-cyclohexyl-1,2,4-oxadiazolyl)-methoxy)PhLac]. sub.2 | 25% |
| Cyclo[MeLeu-(MorCH2 CH2 O)PhLac-MeLeu-Lac-MeLeu-PhLac-MeLeu-Lac] | 41% |
| Cyclo[MeLeu-Lac-MeLeu-(3-(5-cyclohexyl-1,2,4-oxadiazolyl)-methoxy)PhLac-MeLeu-Lac-MeLeu-PhLac] | 74% |
| Cyclo[MeLeu-Lac-MeLeu-(furfuryloxy)PhLac-MeLeu-Lac-MeLeu-PhLac] | 50.6% |
| Cyclo[MeLeu-Lac-MeLeu-(PyrCH2 CH2 O)PhLac-MeLeu-Lac-MeLeu-PhLac] | 39% |
| Cyclo[MeLeu-Lac-MeLeu-((CH3)2 NCH2 CH2 OCO)PhLac-MeLeu-Lac-MeLeu-PhLac] | 66.9% |
| Boc-MeLeu-Lac-MeLeu-(NH2 CO)PhLac-OH | 99.1% |
| Cyclo[MeLeu-Lac-MeLeu-(2-picolyloxy)PhLac-MeLeu-Lac-MeLeu-PhLac] | 76.5% |
| H-MeLeu-Lac-MeLeu-(NH2 CO)PhLac-MeLeu-Lac-MeLeu-(NH2 CO)PhLac-OH | 95.9% |
